# Results: PubChem BioAssay AID1688 (National Center for Advancing Translational Sciences (NCATS), 2009)
# Out of some 220,000 compounds screened, about 2,400 (1.1%) were called active. This list was built around the results that the source calls inconclusive (neither active nor inactive); the mix of calls is not that of the screen. Calls come from the whole dose curve; as a rule, active = well fitted inhibition curve with a large enough effect; inconclusive = small, poorly fitted or top-dose-only effect, or effect the other way; inactive = no such curve, though single readings can be large or run the other way. Potencies of inconclusive entries are doubtful fits and often do not repeat.
# Assay: qHTS Multiplex Assay to Identify Dual Action Probes in a Cell Model of Huntington: Aggregate Formation (GFP); note: nearly all actives have a fitted effect of over 60% in size
# Settings: PC12 HttQ103-GFP aggregates, Acumen cytometry, 40 h; activity change, negative = inhibition: at 46.1 µM (top of the series) unless noted
# How it was run: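 Compounds (qHTS titration) were added to PC12 cells expressing an ecdysone-driven HTT exon 1 Q103–GFP fusion after induction with 100 nM tebufenozide. Aggregate formation was measured as GFP objects in cell lysates.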
# % is set by controls: 0 for no effect and ±100 for the full control effect; potency is the fitted concentration of half-maximal effect.
Compound,Potency,"activity change, negative = inhibition"
Cn1nc(C(F)(F)F)c(/C=N/OC(=O)c2ccccc2)c1Sc1ccc(Cl)cc1,active: 14.1 µM,
CCCCCc1ccc(C(=O)CCCC)c(=S)[nH]1,"inconclusive: 35.5 µM [inhibitor, single point]",
CCS(=O)(=O)N1CCN(C2Cc3ccccc3C2)CC1,,inactive: 18%
CC(C)(C)OC(=O)CNC(=O)c1[nH]cnc1C(=O)Nc1ccc(Cl)cc1,,inactive: -9.19% [at 9.22 µM]
Cc1ccc(C(=O)O)cc1S(=O)(=O)NCC1CCCO1 (stereo unspecified),active: 3.98 µM,
CC(C)(C)C(=O)NCCCc1nc2ccccc2n1CCCOc1ccc(Cl)cc1,"inconclusive: 15.8 µM [inhibitor, single point]",
O=C1CCCN1CCCNc1ncnc2c1[nH]c1ccccc12,,inactive: 10.3%
CSc1oc(-c2ccco2)nc1S(=O)(=O)c1ccc(Br)cc1,,inactive: -22.9%
O=C(O)/C=C/c1ccc2c(-c3ccccc3)onc2c1,"inconclusive: 3.98 µM [inhibitor, full curve]",
CCC[C@@H]1O[C@@H]2C[C@@H]3[C@H]4CCC5=CC(=O)C=C[C@@]5(C)[C@H]4[C@H](O)C[C@@]3(C)[C@@]2(C(=O)CO)O1,,inactive: -3.24%
Nc1ncc(Br)cc1Br,"inconclusive: 35.5 µM [inhibitor, single point]",
COc1cccc(NC(=O)Cn2cc(C#N)c3ccccc32)c1,,inactive: -15.5%
COc1ccc(/C(C)=N/NC(=S)NCCc2ccccc2)cc1,"inconclusive: 17.8 µM [inhibitor, single point]",
Cc1ccc(NCCC(=O)c2ccc(Cl)c(Cl)c2)cc1,"inconclusive: 1.26 µM [activator, full curve, poor fit]",
COC(=O)C(Cc1c[nH]c2ccccc12)NC(=O)CNC(C)=O (stereo unspecified),,inactive: 4.59%
OC(COC(c1ccc(Cl)cc1)c1ccc(Cl)cc1)CN1CCc2ccccc2C1 (stereo unspecified),"inconclusive: 35.5 µM [inhibitor, single point]",
O=C(/C=C/c1cccc(F)c1)c1ccc(N2CCOCC2)cc1,,inactive: 18.7% [at 9.22 µM]
Cc1ccc(C(=O)NCC(C)(C)N2CCOCC2)s1,,inactive: 1.55%
CCOC(=O)C1=c2s/c(=C\c3cccnc3)c(=O)n2C(N)=C(C(=O)OC)C1c1cccnc1 (stereo unspecified),"inconclusive: 12.6 µM [activator, single point]",
CC(C)(C)c1ccc(NC(=O)CSc2nnc(-c3n[nH]c4ccccc34)o2)cc1,"inconclusive: 35.5 µM [inhibitor, single point]",
Cc1ccc(-c2cc(-c3nnc(SCC(=O)NCC(C)C)n3N)c3ccccc3n2)cc1,"inconclusive: 25.1 µM [inhibitor, single point]",
Cc1cccc2cc(CN(Cc3ccc4c(c3)OCO4)Cc3nnnn3C3CCCC3)c(=O)[nH]c12,"inconclusive: 11.2 µM [inhibitor, single point]",
O=c1oc2ccccc2c(Nc2cccc(O)c2)c1[N+](=O)[O-],"inconclusive: 11.2 µM [activator, partial curve]",
O=C(CSc1nnnn1-c1ccc2c(c1)OCO2)NCc1cccs1,"inconclusive: 35.5 µM [inhibitor, single point]",

Compound,Potency,"activity change, negative = inhibition"
COC(=O)C1=C(N)Oc2cc(C)n(C)c(=O)c2C1c1ccc(Cl)cc1 (stereo unspecified),active: 11.2 µM,
COc1ccc(-c2cc(C(=O)N3CC4(C)CC3CC(C)(C)C4)no2)cc1 (stereo unspecified),,inactive: -12.2%
O=C1NC(=S)N/C1=C\c1ccc(N2CCOCC2)cc1,,inactive: 17.3%
Cc1nc(N)sc1C(=O)N/N=C/c1ccc([N+](=O)[O-])cc1,,inactive: -9.05% [at 9.22 µM]
COc1ccccc1OCC(O)Cn1c(=N)n(Cc2ccccc2)c2ccccc21 (stereo unspecified),"inconclusive: 12.6 µM [inhibitor, single point]",
COc1ccc(NC(=S)Nn2cnnc2)cc1OC,,inactive: -15.8%
COc1cccc(-c2cnc(NCc3cc(Cl)ccc3O)n2C)c1,"inconclusive: 35.5 µM [inhibitor, single point]",
Cc1ccc(C(=O)Nc2ccc(C)c(S(=O)(=O)Nc3ccccc3Cl)c2)s1,"inconclusive: 22.4 µM [inhibitor, single point]",
O=C(Nc1ccc(Oc2ccc(Cl)cc2)cc1)c1ncn[nH]1,"inconclusive: 10 µM [inhibitor, partial curve]",
CCN(CC)c1ccc(NC(=O)COC(=O)/C=C/c2nc3ccccc3s2)cc1,"inconclusive: 3.16 µM [inhibitor, single point]",
CCCCNC(NCCCC)=C(S(=O)(=O)CC)S(=O)(=O)CC,"inconclusive: 0.562 µM [activator, full curve]",
S=c1[nH]nc(-c2ccco2)n1/N=C/c1ccc(Cl)c(Cl)c1,"inconclusive: 3.16 µM [inhibitor, single point]",
Cc1ccc(Nc2nc(-c3ccc(S(=O)(=O)N4CCOCC4)cc3)cs2)cc1Cl,"inconclusive: 35.5 µM [inhibitor, single point]",
O=C(N/N=C/c1ccc2cccc(OCc3ccccc3)c2n1)c1ccc(Cl)cc1,"inconclusive: 5.62 µM [activator, single point]",
COc1ccccc1N1CCN(C(=O)c2ccc(Cn3c(=O)[nH]c4ccsc4c3=O)cc2)CC1,,inactive: -19% [at 9.22 µM]
O=[N+]([O-])c1ccc(/C=N/n2c(C3CCCCC3)n[nH]c2=S)cc1,,inactive: 0.557%
O=C(Nc1cccc(-c2nnc(-c3ccco3)o2)c1)C(c1ccccc1)c1ccccc1,"inconclusive: 35.5 µM [inhibitor, single point]",
COc1ccc(OCCC(=O)c2ccc(OC)cc2)cc1,,inactive: 18.6% [at 9.22 µM]
CCn1nc(C)c(NC(=O)/C=C/c2ccc(OC)c(COc3ccc(Cl)cc3Br)c2)c1C,"inconclusive: 35.5 µM [activator, single point]",
O=C(O)c1ccc2c(=O)n3cc(C(=O)c4ccccc4O)cc(Cl)c3nc2c1,,inactive: 2.69% [at 9.22 µM]
COc1cc(C(C[N+](=O)[O-])c2c(-c3ccccc3)cc3ccccn23)cc(OC)c1OC (stereo unspecified),"inconclusive: 3.16 µM [inhibitor, single point]",
CCOC(=O)C1CCCN(C(c2ccccn2)c2c(C)[nH]c3ccccc23)C1 (stereo unspecified),,inactive: -19.1%
Cc1ccnc(SCC(=O)Nc2sc3c(c2C#N)CCCC3)n1,"inconclusive: 7.08 µM [inhibitor, partial curve]",
Cc1cccc(NC(=O)CN(c2ccc(F)cc2)S(C)(=O)=O)c1,"inconclusive: 2.82 µM [inhibitor, partial curve]",

# Five structures already listed, ordered by molar mass, rising:
Compound,Potency,"activity change, negative = inhibition"
COc1cccc(NC(=O)Cn2cc(C#N)c3ccccc32)c1,,inactive: -15.5%
COc1ccc(/C(C)=N/NC(=S)NCCc2ccccc2)cc1,"inconclusive: 17.8 µM [inhibitor, single point]",
CCN(CC)c1ccc(NC(=O)COC(=O)/C=C/c2nc3ccccc3s2)cc1,"inconclusive: 3.16 µM [inhibitor, single point]",
CCC[C@@H]1O[C@@H]2C[C@@H]3[C@H]4CCC5=CC(=O)C=C[C@@]5(C)[C@H]4[C@H](O)C[C@@]3(C)[C@@]2(C(=O)CO)O1,,inactive: -3.24%
Cc1ccc(-c2cc(-c3nnc(SCC(=O)NCC(C)C)n3N)c3ccccc3n2)cc1,"inconclusive: 25.1 µM [inhibitor, single point]",

# Additional structures:

Compound,Potency,"activity change, negative = inhibition"
CCc1ccc(N(C(=O)c2csnn2)C(C(=O)NC(C)(C)C)c2cccnc2)cc1 (stereo unspecified),,inactive: 15.8% [at 9.22 µM]
CCOCCOCN(C#N)c1nc(OC)nc(N(C)C)n1,"inconclusive: 4.47 µM [inhibitor, partial curve]",
O=C(CSc1ccc2nnc(-c3ccc(F)cc3)n2n1)N1CCCc2ccccc21,,inactive: -12.3%
COC(=O)C1CSC(C(=O)OC)N1C(=O)CN1CCN(c2ccc(OC)cc2)CC1 (stereo unspecified),,inactive: 11.7%
COc1cccc(Nc2nc(-c3cccs3)nc3ccccc23)c1,"inconclusive: 35.5 µM [inhibitor, single point]",
O=C(Nc1nnc(-c2ccccc2)o1)NC1CCCCC1,"inconclusive: 17.8 µM [inhibitor, single point]",
CC(=O)OCCCn1c(C)[n+](C)c2cc(Cl)c(Cl)cc21,,inactive: 16.9% [at 9.22 µM]
N#Cc1nc(-c2ccc(OCc3ccccc3)cc2)oc1NCc1cccnc1,active: 12.6 µM,
CCn1c2c(c3ccc(OC)cc31)CCCC2=O,"inconclusive: 35.5 µM [inhibitor, single point]",
CCCNC(=O)CCCCn1c(=S)[nH]c2c([nH]c3ccc(OC)cc32)c1=O,,inactive: 6.28%
COc1cccc(NC(=O)Cn2cnc3sc(C)c(S(=O)(=O)N4CCCCC4)c3c2=O)c1,"inconclusive: 20 µM [activator, single point]",
Cc1ccc(O)c(NC2=C(Cl)C(=O)N(Cc3ccccc3)C2=O)c1,"inconclusive: 35.5 µM [activator, partial curve]",
CC(C)CC(=O)Nc1nc2ccc(S(C)(=O)=O)cc2s1,,inactive: 11.3% [at 9.22 µM]
Nc1nnc(-c2cccc([N+](=O)[O-])c2)s1,,inactive: -8.7% [at 9.22 µM]
CCc1ccc2nc(N=C(N)N)nc(C)c2c1,"inconclusive: 35.5 µM [inhibitor, partial curve, poor fit]",
CC(CC(=O)Nc1nc2ccccc2[nH]1)c1ccccc1 (stereo unspecified),"inconclusive: 11.2 µM [inhibitor, single point]",
COc1ccc(C(C(=O)NC2CCCCC2)N(C(=O)CCl)c2ccc(Cl)cc2)cc1 (stereo unspecified),"inconclusive: 35.5 µM [inhibitor, single point]",
c1ccc2c(c1)[nH]c1c(N3CCCC3)ncnc12,,inactive: -32%
CC(C)CC1C(C#N)=C(N)Oc2n[nH]c(-c3ccccc3)c21 (stereo unspecified),"inconclusive: 35.5 µM [activator, single point]",
N#CC1=C(N)NC(SCc2ccc(Cl)cc2)=C(C#N)C12CCCCC2,"inconclusive: 22.4 µM [inhibitor, single point]",
O=S(=O)(c1ccc(F)cc1)N1CCN=C1SCc1cccnc1,,inactive: 9.79%
Cc1ccc(C(=O)Nc2cccc(C(=O)O)c2)cc1S(=O)(=O)N1CCCCC1,"inconclusive: 2.82 µM [inhibitor, single point]",
COc1ccc2cc(C#N)c(N3CCN(C(=O)c4ccccc4C)CC3)nc2c1,"inconclusive: 35.5 µM [inhibitor, single point]",
